Test results published in article PMC11878095, “Interspecies signaling modulates the biosynthesis of antimicrobial secondary metabolites related to biological control activities of Pseudomonas fluorescens 2P24” (Microbiology Spectrum, 2025).

Target: T1, PhlF (2P24_PhlF) (Pseudomonas fluorescens 2P24) (UniProt Q9S6I5)
T1 sequence (looked up, limits assumed): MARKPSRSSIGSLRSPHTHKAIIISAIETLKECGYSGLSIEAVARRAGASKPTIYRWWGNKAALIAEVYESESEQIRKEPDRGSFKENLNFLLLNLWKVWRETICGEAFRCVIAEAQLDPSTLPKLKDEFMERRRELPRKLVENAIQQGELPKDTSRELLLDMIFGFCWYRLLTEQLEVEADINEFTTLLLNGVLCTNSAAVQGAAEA
Test: EMSA
Conditions: EMSA: 0.2 uM DNA, Tris-HCl pH 8.0 (printed as 0 mM), 0.5 mM KCl, 6 mM MgCl2, 0.1% glycerol, 2 mM EDTA, 1 mM DTT, 3 uM human serum albumin, 30 min at 25 C, 6% native PAGE, recombinant protein, protein details: N-terminal His6, label: 6-carboxyfluorescein

## ATGATACGAAACGTGCCGTATCGTTAAGGT (double strand) [phlA operator fragment (phlF-phlA intergenic)]
No PLT
  binding result: binds
Pyoluteorin (PLT) up to 1 mM, does not dissociate PhlF from DNA
  binding result: binds

The exact form of at least one protein or probe is not confirmed. At least one verdict rests on a figure or table, not on a statement of the authors. Tags and fusion partners may be left off the protein sequences shown.
